Source: paper PMC10960023
Results are given in words; binding and its absence hold for the method and conditions named. In cells and extracts the contact can be indirect. Some entries that bind do so weakly or less than the wild type.

Protein sequences, listed by entry. Tags and fused reporters are not part of them.
UniProt P07437: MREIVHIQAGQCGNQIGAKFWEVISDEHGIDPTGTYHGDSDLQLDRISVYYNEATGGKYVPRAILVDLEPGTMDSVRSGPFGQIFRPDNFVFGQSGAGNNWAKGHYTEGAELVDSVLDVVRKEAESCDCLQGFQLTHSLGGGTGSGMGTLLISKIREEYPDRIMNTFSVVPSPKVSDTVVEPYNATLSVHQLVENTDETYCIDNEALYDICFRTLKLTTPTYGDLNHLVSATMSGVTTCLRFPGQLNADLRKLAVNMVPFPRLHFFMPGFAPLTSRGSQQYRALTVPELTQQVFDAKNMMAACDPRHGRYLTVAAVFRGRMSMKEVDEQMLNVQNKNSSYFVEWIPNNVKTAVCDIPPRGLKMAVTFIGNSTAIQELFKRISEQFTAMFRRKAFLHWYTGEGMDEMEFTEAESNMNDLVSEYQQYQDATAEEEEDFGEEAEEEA

Molecular target: TUBB (human) (UniProt P07437)
Assay: co-IP; HEK293 cells transfected with the indicated constructs, lysed 24 h later in 50 mM Tris-HCl pH 7.5, 200 mM NaCl, 0.5% Triton X-100, 1 mM DTT; lysates incubated with anti-FLAG M2 agarose for 2 h at 4 °C; immunoblotting

binding: binds
B1: HYLS1 (protein, UniProt Q96M11 1-299)
chain: MEELLPDGQIWANMDPEERMLAAATAFTHICAGQGEGDVRREAQSIQYDPYSKASVAPGKRPALPVQLQYPHVESNVPSETVSEASQRLRKPVMKRKVLRRKPDGEVLVTDESIISESESGTENDQDLWDLRQRLMNVQFQEDKESSFDVSQKFNLPHEYQGISQDQLICSLQREGMGSPAYEQDLIVASRPKSFILPKLDQLSRNRGKTDRVARYFEYKRDWDSIRLPGEDHRKELRWGVREQMLCRAEPQSKPQHIYVPNNYLVPTEKKRSALRWGVRCDLANGVIPRKLPFPLSPS
